In article PMC3742539, “ε Subunit of Bacillus subtilis F1-ATPase Relieves MgADP Inhibition” (PLoS ONE, 2013):

Substrate: Nc1ncnc2c1ncn2[C@@H]1O[C@H](COP(=O)(O)OP(=O)(O)OP(=O)(O)O)[C@@H](O)[C@H]1O
Assay: purified protein
Format: biochemical, Bacillus subtilis
Settings: initial rate, no LDAO, equimolar MgSO4 plus 2 mM MgSO4, pH 7.5, 50 mM K2SO4, 25 °C

B1: α3β3γ complex of BF1 (F1-ATPase from Bacillus subtilis) (Bacillus subtilis subsp. subtilis str. 168) (protein)
chain 1: MKKGRVSQVLGPVVDVRFEDGHLPEIYNAIKISQPAASENEVGIDLTLEVALHLGDDTVRTIAMASTDGVQRGMEAVDTGAPISVPVGDVTLGRVFNVLGENIDLNEPVPADAKKDPIHRQAPSFDQLSTEVEILETGIKVVDLLAPYIKGGKIGLFGGAGVGKTVLIQELINNIAQEHGGISVFAGVGERTREGNDLFYEMSDSGVINKTAMVFGQMNEPPGARMRVALTGLTMAEHFRDVQGQDVLFFIDNIFRFTQAGSEVSALLGRMPSAVGYQPTLATEMGQLQERITSTNVGSVTSIQAIYVPADDYTDPAPATTFAHLDATTNLERKLTEMGIYPAVDPLASTSRALAPEIVGEEHYAVAREVQSTLQRYKELQDIIAILGMDELGEEDKLVVHRARRIQFFLSQNFHVAEQFTGQKGSYVPVKETVQGFKEILAGKYDHLPEDAFRLVGRIEEVVEKAKEMGVEV
chain 2: SIKAEEISTLIKQQIQNYQSDIEVQDVGTVIQVGDGIARVHGLDNCMAGELVEFSNGVLGMAQNLEESNVGIVILGPFSEIREGDEVKRTGRIMEVPVGEELIGRIVNPLGQPVDGLGPILTSKTRPIESPAPGVMDRKSVHEPLQTGIKAIDALIPIGRGQRELIIGDRQTGKTSVAIDAILNQKDQDMICVYVAIGQKESTVRGVVETLRKHGALDYTIVVTASASQPAPLLYLAPYAGVTMAEEFMYNGKHVLVVYDDLSKQAAAYRELSLLLRRPPGREAFPGDVFYLHSRLLERAAKLSDAKGAGSITALPFVETQAGDISAYIPTNVISITDGQIFLQSDLFFSGVRPAINAGLSVSRVGGSAQIKAMKKVSGTLRLDLASYRELEAFAQFGSDLDQATQAKLNRGARTVEVLKQDLNKPLPVEKQVAILYALTKGYLDDIPVADIRRFEEEYYMYLDQNHKDLLDGIAKTGNLPADEDFKAAIEGFKRTFAPSN
notes: recombinant α3β3γ subcomplex without δ and ε; His6-tag at N-terminus of β (kept); initiation codons of α and γ changed to ATG; expressed in E. coli BL21(DE3) from pET21-BF1; nucleotide-free; with ATP synthase gamma chain
- Km: 12.7 ± 0.9 µM
- kcat: 56.2 ± 0.9 s⁻¹

B2: α3β3γε complex of BF1 (F1-ATPase from Bacillus subtilis) (Bacillus subtilis subsp. subtilis str. 168) (protein)
chain 1: B1 chain 1
chain 2: B1 chain 2
notes: recombinant α3β3γ (His6-tag at N-terminus of β, kept) reconstituted with excess separately purified BF1 ε subunit; no δ; E. coli expression; with ATP synthase gamma chain; ATP synthase epsilon chain
- Km: 13.8 ± 0.9 µM
- kcat: 72.3 ± 1.3 s⁻¹
